Test results reported in article PMC6945063 (2019).

Sequences of proteins named here, by UniProt entry; tags and fusion partners are left off. A change or cut given only in a name is not applied to a line headed by its entry.
UniProt Q9BXW4: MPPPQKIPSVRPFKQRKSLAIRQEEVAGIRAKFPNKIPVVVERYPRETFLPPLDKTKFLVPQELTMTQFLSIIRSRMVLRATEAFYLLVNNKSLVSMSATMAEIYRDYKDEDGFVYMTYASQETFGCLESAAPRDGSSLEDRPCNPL

B1: GST‐ATG4A (enzyme)
chain: MESVLSKYEDQITIFTDYLEEYPDTDELVWILGKQHLLKTEKSKLLSDISARLWFTYRRKFSPIGGTGPSSDAGWGCMLRCGQMMLAQALICRHLGRDWSWEKQKEQPKEYQRILQCFLDRKDCCYSIHQMAQMGVGEGKSIGEWFGPNTVAQVLKKLALFDEWNSLAVYVSMDNTVVIEDIKKMCRVLPLSADTAGDRPPDSLTASNQSKGTSAYCSAWKPLLLIVPLRLGINQINPVYVDAFKECFKMPQSLGALGGKPNNAYYFIGFLGDELIFLDPHTTQTFVDTEENGTVNDQTFHCLQSPQRMNILNLDPSVALGFFCKEEKDFDNWCSLVQKEILKENLRMFELVQKHPSHWPPFVPPAKPEVTTTGAEFIDSTEQLEEFDLEEDFEILSV
B2: Flag‐ATG4C (enzyme, UniProt Q96DT6 1-458)
chain: MEATGTDEVDKLKTKFISAWNNMKYSWVLKTKTYFSRNSPVLLLGKCYHFKYEDEDKTLPAESGCTIEDHVIAGNVEEFRKDFISRIWLTYREEFPQIEGSALTTDCGWGCTLRTGQMLLAQGLILHFLGRAWTWPDALNIENSDSESWTSHTVKKFTASFEASLSGEREFKTPTISLKETIGKYSDDHEMRNEVYHRKIISWFGDSPLALFGLHQLIEYGKKSGKKAGDWYGPAVVAHILRKAVEEARHPDLQGITIYVAQDCTVYNSDVIDKQSASMTSDNADDKAVIILVPVRLGGERTNTDYLEFVKGILSLEYCVGIIGGKPKQSYYFAGFQDDSLIYMDPHYCQSFVDVSIKDFPLETFHCPSPKKMSFRKMDPSCTIGFYCRNVQDFKRASEEITKMLKFSSKEKYPLFTFVNGHSRDYDFTSTTTNEEDLFSEDEKKQLKRFSTEEFVLL
B3: TBK1 K38A (enzyme, UniProt Q9UHD2 1-729)
chain: MQSTSNHLWLLSDILGQGATANVFRGRHKKTGDLFAIAVFNNISFLRPVDVQMREFEVLKKLNHKNIVKLFAIEEETTTRHKVLIMEFCPCGSLYTVLEEPSNAYGLPESEFLIVLRDVVGGMNHLRENGIVHRDIKPGNIMRVIGEDGQSVYKLTDFGAARELEDDEQFVSLYGTEEYLHPDMYERAVLRKDHQKKYGATVDLWSIGVTFYHAATGSLPFRPFEGPRRNKEVMYKIITGKPSGAISGVQKAENGPIDWSGDMPVSCSLSRGLQVLLTPVLANILEADQEKCWGFDQFFAETSDILHRMVIHVFSLQQMTAHKIYIHSYNTATIFHELVYKQTKIISSNQELIYEGRRLVLEPGRLAQHFPKTTEENPIFVVSREPLNTIGLIYEKISLPKVHPRYDLDGDASMAKAITGVVCYACRIASTLLLYQELMRKGIRWLIELIKDDYNETVHKKTEVVITLDFCIRNIEKTVKVYEKLMKINLEAAELGEISDIHTKLLRLSSSQGTIETSLQDIDSRLSPGGSLADAWAHQEGTHPKDRNVEKLQVLLNCMTEIYYQFKKDKAERRLAYNEEQIHKFDKQKLYYHATKAMTHFTDECVKKYEAFLNKSEEWIRKMLHLRKQLLSLTNQCFDIEEEVSKYQEYTNELQETLPQKMFTASSGIKHTMTPIYPSSNTLVEMTLGMKKLKEEMEGVVKELAENNHILERFGSLTMDGGLRNVDCL

molecular target: GFP‐LC3C WT (human) (UniProt Q9BXW4); experiment: co-IP; HEK293T co-transfected with Flag‐ATG4A, B, C or D and GFP‐LC3C or GFP‐GABARAP‐L2 (WT or mutants); GFP‐Trap_A beads, 2 h at 4°C, Western blot

Row | binding | Molecule
1 | binds | Flag‐ATG4B (from UniProt Q9Y4P1) (enzyme)
2 | binds | Flag‐ATG4D (from UniProt Q86TL0 1-474) (enzyme)
3 | binds | B2

Row | Molecule | binding
4 | B1 | binds

molecular target: GST‐LC3C (human) (UniProt Q9BXW4); experiment: pull-down; GST‐LC3C or GST‐GABARAP‐L2 on glutathione‐Sepharose beads mixed with cleared extracts of HeLa or HEK293T cells (endogenous TBK1, or HEK293T transfected with TBK1 constructs), 2 h at 4°C, washed four times in lysis buffer, Western blot; only the target purified

Row | binding | Molecule
5 | binds | Endogenous TBK1 (from UniProt Q9UHD2 1-729) (enzyme)
6 | binds | full‐length TBK1 (from UniProt Q9UHD2 1-729) (enzyme)
7 | binds | B3

These are yes or no findings as the source states them, for the method shown. In cells and extracts the contact can be indirect. A result given as binding can be weak or reduced; the word gives no strength. For some of these results: Where a sequence is shown, tags or fusion partners need not be part of it.
